The M2OR odorant receptor database
The entries are a selection whose mix differs from that of the whole data set. The calls were merged from several studies; some rest on single wells. The list shows a part of the results.

Chains of the proteins cited; added tags and fusions are not shown. A change or cut given only in a name is not applied to a line headed by its entry. A line that says so, or that is headed by a name, gives the form on record, which may keep a tag or linker.
UniProt Q8NGI6: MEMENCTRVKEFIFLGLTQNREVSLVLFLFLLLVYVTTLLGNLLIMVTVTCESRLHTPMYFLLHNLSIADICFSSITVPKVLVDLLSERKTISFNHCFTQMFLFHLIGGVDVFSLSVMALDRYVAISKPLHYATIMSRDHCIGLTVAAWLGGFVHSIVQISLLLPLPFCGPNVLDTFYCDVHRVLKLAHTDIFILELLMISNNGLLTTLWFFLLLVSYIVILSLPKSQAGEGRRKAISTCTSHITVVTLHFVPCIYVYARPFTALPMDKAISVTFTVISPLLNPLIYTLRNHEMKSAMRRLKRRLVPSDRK
UniProt Q8NGI4: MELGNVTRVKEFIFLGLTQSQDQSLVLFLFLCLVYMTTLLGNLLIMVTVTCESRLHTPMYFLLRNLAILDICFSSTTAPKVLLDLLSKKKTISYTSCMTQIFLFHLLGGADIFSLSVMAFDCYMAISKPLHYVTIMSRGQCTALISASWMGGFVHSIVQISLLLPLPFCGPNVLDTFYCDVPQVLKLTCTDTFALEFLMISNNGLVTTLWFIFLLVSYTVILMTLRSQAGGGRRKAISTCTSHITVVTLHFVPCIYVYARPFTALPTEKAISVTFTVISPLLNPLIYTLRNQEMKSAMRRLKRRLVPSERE
UniProt Q8NGN0: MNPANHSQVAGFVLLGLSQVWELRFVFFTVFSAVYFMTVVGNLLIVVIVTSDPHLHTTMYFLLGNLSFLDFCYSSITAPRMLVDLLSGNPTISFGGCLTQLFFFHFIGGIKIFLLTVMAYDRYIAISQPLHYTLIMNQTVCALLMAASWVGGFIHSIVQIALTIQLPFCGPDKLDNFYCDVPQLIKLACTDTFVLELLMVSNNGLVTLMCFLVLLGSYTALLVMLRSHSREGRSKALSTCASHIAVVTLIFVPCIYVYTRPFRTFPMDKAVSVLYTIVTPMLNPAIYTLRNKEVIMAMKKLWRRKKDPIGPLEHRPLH
UniProt Q8NGE8: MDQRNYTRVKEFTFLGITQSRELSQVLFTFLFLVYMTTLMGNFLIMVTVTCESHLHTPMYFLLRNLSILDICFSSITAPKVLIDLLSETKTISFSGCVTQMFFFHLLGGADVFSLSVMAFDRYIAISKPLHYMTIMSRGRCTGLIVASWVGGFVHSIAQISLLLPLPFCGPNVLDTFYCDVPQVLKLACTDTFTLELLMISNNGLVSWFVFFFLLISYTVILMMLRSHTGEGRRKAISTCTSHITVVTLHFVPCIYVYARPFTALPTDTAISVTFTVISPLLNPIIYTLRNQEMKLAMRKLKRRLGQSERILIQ
UniProt P0C645: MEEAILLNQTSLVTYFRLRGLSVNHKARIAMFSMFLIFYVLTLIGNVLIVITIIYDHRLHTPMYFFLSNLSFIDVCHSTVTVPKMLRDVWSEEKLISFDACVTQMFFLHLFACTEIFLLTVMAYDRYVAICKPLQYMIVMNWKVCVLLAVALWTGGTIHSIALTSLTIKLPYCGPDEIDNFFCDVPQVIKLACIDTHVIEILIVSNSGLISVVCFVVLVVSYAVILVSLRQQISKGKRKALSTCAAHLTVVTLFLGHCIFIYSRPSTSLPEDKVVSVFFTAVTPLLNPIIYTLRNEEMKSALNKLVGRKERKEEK
OR4CF, as listed by the source: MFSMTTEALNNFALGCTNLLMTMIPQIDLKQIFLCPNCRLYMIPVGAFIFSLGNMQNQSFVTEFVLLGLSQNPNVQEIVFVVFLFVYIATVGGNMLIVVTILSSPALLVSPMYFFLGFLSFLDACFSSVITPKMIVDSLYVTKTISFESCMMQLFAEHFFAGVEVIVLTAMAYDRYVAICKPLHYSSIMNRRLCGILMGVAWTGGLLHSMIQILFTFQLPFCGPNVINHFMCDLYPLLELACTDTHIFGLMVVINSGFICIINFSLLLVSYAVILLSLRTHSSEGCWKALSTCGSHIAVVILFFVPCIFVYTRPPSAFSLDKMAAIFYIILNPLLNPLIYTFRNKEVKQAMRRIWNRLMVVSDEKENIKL
OR4D1, as listed by the source: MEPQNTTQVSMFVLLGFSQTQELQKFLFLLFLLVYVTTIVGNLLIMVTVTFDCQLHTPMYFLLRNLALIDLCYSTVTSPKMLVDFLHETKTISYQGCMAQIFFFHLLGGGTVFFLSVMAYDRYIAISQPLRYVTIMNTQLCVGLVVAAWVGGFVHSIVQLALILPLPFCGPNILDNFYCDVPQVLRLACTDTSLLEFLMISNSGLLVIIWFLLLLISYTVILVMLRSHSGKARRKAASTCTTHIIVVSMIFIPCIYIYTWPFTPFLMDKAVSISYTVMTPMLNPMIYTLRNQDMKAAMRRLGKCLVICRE
OR4D2, as listed by the source: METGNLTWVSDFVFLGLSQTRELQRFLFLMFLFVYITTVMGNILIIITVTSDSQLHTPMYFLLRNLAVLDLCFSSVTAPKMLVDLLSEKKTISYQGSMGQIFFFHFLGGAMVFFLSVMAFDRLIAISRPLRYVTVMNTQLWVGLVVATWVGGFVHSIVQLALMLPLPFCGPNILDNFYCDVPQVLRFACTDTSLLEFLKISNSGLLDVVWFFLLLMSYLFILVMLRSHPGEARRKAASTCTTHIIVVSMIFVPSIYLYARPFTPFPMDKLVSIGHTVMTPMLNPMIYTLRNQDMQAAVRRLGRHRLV
OR4D6, as listed by the source: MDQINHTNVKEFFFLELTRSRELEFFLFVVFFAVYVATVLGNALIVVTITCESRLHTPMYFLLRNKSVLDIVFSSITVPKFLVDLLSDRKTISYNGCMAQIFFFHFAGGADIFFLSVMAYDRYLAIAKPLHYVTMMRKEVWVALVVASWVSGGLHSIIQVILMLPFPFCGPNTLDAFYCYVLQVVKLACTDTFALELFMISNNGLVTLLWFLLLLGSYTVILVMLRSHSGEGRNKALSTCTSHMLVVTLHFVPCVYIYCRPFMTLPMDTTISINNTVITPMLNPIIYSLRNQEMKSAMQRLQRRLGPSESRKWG

What was measured:
Settings in all cases: stereoisomer not certain
OR4CF = test system: OR4CF
Outline: (§1)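 Transient luciferase assays in mammalian cell lines were common, though methods varied by source. The values come from published papers and their supplementary material, with extra details from the original authors when needed. Responsive refers to a measured signal the original authors judged statistically different from baseline, and non-responsive (inactive) to the remainder.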

OR4CG = test system: T1, OR4CG
T1 sequence (whole entry): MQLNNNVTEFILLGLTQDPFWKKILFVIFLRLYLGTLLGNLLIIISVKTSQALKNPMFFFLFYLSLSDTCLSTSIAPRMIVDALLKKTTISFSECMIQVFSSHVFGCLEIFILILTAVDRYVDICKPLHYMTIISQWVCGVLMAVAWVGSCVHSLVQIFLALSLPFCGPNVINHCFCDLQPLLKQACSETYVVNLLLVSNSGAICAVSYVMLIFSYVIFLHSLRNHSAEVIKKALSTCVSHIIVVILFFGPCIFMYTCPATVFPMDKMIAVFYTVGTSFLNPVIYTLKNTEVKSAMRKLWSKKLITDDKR
Outline: as §1

OR4D10 (Homo sapiens) = OR4D10 (Homo sapiens) (UniProt Q8NGI6)
Outline: as §1

OR4D11 (Homo sapiens) = OR4D11 (Homo sapiens) (UniProt Q8NGI4)
Outline: as §1

OR4D1 = test system: OR4D1
Outline: as §1

OR4D2 = test system: OR4D2
Outline: as §1

OR4D5 (Homo sapiens) = OR4D5 (Homo sapiens) (UniProt Q8NGN0)
Outline: as §1

OR4D6 = test system: OR4D6
Outline: as §1

OR4D9 (Homo sapiens) = OR4D9 (Homo sapiens) (UniProt Q8NGE8)
Outline: as §1

OR4E2 = test system: T2, OR4E2
T2 sequence (whole entry): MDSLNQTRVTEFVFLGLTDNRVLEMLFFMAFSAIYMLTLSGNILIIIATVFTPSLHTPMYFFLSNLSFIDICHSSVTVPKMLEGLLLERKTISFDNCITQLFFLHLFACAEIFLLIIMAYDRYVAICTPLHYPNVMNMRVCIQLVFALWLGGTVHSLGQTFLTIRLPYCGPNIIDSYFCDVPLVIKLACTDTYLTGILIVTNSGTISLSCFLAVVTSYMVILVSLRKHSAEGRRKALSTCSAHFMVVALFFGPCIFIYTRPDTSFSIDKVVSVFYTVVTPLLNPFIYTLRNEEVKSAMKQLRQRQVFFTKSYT
Outline: as §1

OR4F15 (Homo sapiens) = biological target: T3, OR4F15 (Homo sapiens) (UniProt Q8NGB8)
T3 sequence (whole entry): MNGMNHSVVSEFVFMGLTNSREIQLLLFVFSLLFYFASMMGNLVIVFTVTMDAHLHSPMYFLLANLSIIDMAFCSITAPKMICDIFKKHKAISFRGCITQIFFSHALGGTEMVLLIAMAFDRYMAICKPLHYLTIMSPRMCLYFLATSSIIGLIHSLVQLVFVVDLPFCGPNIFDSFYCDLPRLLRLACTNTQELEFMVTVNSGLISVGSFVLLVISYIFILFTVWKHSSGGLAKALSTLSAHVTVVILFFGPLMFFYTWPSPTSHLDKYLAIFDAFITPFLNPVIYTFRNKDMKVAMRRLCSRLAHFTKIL
Outline: as §1

OR4F3 (Homo sapiens) = biological target: T4, OR4F3 (Homo sapiens) (UniProt Q6IEY1)
T4 sequence (whole entry): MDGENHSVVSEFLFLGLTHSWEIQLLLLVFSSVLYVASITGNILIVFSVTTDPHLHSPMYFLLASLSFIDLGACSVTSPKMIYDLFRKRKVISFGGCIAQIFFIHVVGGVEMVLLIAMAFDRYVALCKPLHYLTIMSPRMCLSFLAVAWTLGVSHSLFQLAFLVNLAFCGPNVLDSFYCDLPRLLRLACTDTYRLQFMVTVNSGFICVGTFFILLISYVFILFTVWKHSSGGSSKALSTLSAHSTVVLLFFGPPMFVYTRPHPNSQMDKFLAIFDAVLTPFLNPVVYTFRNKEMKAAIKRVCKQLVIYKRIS
Outline: as §1

OR4F3 = test system: T5, OR4F3
T5 sequence (whole entry): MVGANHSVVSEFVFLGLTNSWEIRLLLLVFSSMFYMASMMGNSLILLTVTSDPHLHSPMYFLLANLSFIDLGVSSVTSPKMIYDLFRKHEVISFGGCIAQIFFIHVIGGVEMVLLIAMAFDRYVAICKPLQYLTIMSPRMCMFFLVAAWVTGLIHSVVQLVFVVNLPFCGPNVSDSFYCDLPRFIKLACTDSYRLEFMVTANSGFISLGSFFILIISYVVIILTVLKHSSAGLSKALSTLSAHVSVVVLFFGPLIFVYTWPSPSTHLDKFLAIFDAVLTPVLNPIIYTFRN
Outline: as §1

OR4E1 (Homo sapiens) = OR4E1 (Homo sapiens) (UniProt P0C645)
Outline: as §1

Measured: odorant receptor agonist call

O=C1CCCCCCCCCCCCCCO1
not listed: OR4E1 (Homo sapiens)
inactive: all other assays above

O=CCc1ccccc1
active: OR4CG | OR4D5 (Homo sapiens)
not listed: OR4E1 (Homo sapiens)
inactive: all other assays above

O=C1CCCCCCCCCCCC(=O)OCCO1
active: OR4D10 (Homo sapiens)
not listed: OR4E1 (Homo sapiens)
inactive: all other assays above

CCCCCCCCCC=O
not listed: OR4E1 (Homo sapiens)
inactive: all other assays above

CC(=O)OCC=C(C)CCC=C(C)C
active: OR4CG | OR4D5 (Homo sapiens)
not listed: OR4E1 (Homo sapiens)
inactive: all other assays above

COc1cc(C)ccc1O
not listed: OR4E1 (Homo sapiens)
inactive: all other assays above

CCCCCOC(C)=O
inactive: all assays above

CC12C=CCC1C1CCC3=CC(=O)CCC3(C)C1CC2 (configuration not stated)
not listed: OR4E1 (Homo sapiens)
inactive: all other assays above

CC(C)C=O
not listed: OR4E1 (Homo sapiens)
inactive: all other assays above

C=CCc1ccc(OC)c(OC)c1
active: OR4CG
not listed: OR4E1 (Homo sapiens)
inactive: all other assays above

COc1cc(C=O)ccc1O
not listed: OR4E1 (Homo sapiens)
inactive: all other assays above

CC12CCC(CC1)C(C)(C)O2
not listed: OR4E1 (Homo sapiens)
inactive: all other assays above
